These are yes or no findings as the source states them, for the method shown. Some entries that bind do so weakly or less than the wild type.
Biological target: Lysosomal Ras-associated protein 7a (RAB7A), recombinant mouse protein (mouse) (UniProt P51150)
Assay: SPR; RAB7A immobilised on a CM5 chip; twofold dilution series of SIRT5 injected at 10 µl/min for 60 s, dissociation 90 s; BIAcore T200; 1:1 Langmuir model; both purified

By UniProt entry, the sequences of proteins in these tests, tags left out. Residues count along the entry.
UniProt P51150: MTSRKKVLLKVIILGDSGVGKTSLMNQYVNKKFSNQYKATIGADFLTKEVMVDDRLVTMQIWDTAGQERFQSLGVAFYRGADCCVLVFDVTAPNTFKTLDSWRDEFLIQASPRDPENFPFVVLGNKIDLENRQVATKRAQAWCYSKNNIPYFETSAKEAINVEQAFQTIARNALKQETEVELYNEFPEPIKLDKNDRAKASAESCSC
UniProt Q8K2C6, residues 37-310: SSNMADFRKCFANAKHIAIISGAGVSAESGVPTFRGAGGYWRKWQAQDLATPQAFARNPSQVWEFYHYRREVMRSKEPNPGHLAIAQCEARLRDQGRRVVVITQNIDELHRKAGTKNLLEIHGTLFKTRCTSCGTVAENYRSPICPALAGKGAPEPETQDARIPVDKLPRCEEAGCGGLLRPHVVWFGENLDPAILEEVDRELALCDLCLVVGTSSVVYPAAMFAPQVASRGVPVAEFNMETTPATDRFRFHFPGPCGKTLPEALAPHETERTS

In the case of “Sirtuin 5 (SIRT5), recombinant mouse protein (from UniProt Q8K2C6 37-310) (enzyme)”, the binding is reported as “binds”.

— PMC11321632
